Earlier results on one compound are cited in patent US20110008461A1 (priority 2008, published 2011).

Protein sequences, listed by entry. Tags and fused reporters are not part of them. Residues count along the entry.
UniProt P21642, 34-641 limits assumed: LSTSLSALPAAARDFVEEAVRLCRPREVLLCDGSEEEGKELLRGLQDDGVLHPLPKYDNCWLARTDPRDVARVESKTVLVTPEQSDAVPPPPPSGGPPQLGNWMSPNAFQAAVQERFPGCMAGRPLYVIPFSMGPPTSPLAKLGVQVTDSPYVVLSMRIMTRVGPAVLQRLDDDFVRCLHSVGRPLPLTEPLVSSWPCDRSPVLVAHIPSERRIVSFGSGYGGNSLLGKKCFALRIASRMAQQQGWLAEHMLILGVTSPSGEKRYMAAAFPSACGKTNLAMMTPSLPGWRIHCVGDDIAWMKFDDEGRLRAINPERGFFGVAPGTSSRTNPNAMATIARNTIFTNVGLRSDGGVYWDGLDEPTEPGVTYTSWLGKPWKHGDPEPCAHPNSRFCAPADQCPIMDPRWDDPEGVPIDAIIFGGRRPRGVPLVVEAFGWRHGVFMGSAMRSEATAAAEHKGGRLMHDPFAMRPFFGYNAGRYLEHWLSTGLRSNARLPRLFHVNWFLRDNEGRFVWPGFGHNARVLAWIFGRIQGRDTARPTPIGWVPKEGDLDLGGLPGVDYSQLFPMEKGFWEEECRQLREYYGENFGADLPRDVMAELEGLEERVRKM

Not every entry of the source has a single result; some have several. The list is limited to them. The source may hold further records. The records of an entry differ, and nothing given here explains why; some may be repeats, others may stem from another dose, organism or construct than stated.

In general, Ki refers to the equilibrium dissociation constant of an inhibitor or competing ligand from its target.

The target in the data set is avian liver mPEPCK (Gallus gallus, UniProt P21642). To be noted: previously reported; cited from earlier work.

As to `O=C(O)C(=O)CS(=O)(=O)O` [β-sulfopyruvate], the Ki was 19 µM to 138 µM and 7 µM.
